Experimental data published in PMC12549899 (Nature Communications, 2025).
“And” between values parts separate entries of the source, which are not always exact repeats. Identical values can stand only once.

Molecular target: T1, DrOTOP1 (Danio rerio, UniProt Q7ZWK8)
T1 construct: A previously generated codon-optimized full-length DrOTOP1[8]; (UniProt: Q7ZWK8) construct; expressed in transfected cells; host or cells: HEK-293 (CRL-1573, ATCC)
T1 sequence (Q7ZWK8 1-586): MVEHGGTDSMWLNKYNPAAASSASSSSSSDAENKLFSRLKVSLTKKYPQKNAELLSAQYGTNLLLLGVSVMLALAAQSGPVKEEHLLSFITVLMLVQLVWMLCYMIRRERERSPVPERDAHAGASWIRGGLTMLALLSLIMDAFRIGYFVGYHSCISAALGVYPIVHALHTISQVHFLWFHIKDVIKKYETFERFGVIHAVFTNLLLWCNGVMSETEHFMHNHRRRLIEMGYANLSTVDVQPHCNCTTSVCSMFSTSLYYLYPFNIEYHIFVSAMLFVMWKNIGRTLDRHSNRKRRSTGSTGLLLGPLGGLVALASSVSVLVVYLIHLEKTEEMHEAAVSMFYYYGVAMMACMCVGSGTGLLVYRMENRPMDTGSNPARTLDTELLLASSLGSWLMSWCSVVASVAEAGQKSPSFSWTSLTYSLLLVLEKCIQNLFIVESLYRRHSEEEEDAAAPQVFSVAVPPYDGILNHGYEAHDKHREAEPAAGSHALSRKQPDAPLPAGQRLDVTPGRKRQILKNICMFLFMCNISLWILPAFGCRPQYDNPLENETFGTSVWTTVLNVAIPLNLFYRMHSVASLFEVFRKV
Assay: Whole-cell patch-clamp, inhibition of acid-evoked currents, WT DrOTOP1 expressed in HEK-293 cells
Type: cell-based, zebrafish (Danio rerio)
Conditions: 200 µM compound; HEK-293 cells expressing DrOTOP1; Vm -80 mV; values of single cells, FDA 1-3 = FDA-approved drugs; listed as FDA 3, 200 µM
Excerpt: The 50 molecules identified were individually tested by whole-cell patch-clamp electrophysiology for effects on DrOTOP1 expressed in human embryonic kidney (HEK)−293 cells. […] This approach enabled us to observe the on- and off-responses of each compound. To quantify the effect of each compound, we compared the current magnitude during compound application immediately before wash-off, to the peak inward current following its removal (Supplementary Fig. 2A).
HEK-293 cells (CRL-1573, ATCC) were cultured in DMEM (Thermofisher 11995073) containing 10% fetal bovine serum (Life Technology 16000044) and Penicillin-Streptomycin (100 I.U./mL) and (100 µg/mL), respectively. […]
Whole-cell patch-clamp recording was performed as previously described[6],[22],[25]. Recordings were made with an Axopatch 200B amplifier, digitized with a Digidata 1322a 16-bit data acquisition system, acquired with pClamp 8.2 and analyzed with Clampfit 10 (Molecular Devices). […]
All data are presented as mean ± SEM unless otherwise noted, and each data point represents an independent replicant. Inhibition of compounds was quantified as ((I2peak-I1)/(I2peak))*100, where I1 is the current immediately before wash-off and I2peak is the maximum recovered current (Supplementary Fig. 2). Hill coefficients were determined by the following equation: Y = Bmax*X^h/(Kd^h + X^h).

CN1c2ccccc2C(NCCCCCCC(=O)O)c2ccc(Cl)cc2S1(=O)=O (stereo not shown) [tianeptine, reference compound]
Inhibition of pH 5.5-induced currents, screen 2: 18.5311% and 8.87% and 13.0177% and 10.1695%
